Data on one compound can be found in publication PMC11524583, “Neurons enhance blood–brain barrier function via upregulating claudin-5 and VE-cadherin expression due to glial cell line-derived neurotrophic factor secretion” (eLife, 2024).

Series [1] deals with triple co-culture BBB model (hCMEC/D3, U251 and SH-SY5Y cells). To be noted: human.
The nature of series [2]: in vitro. The conditions noted are these: human.
Series [3] is described as follows: in vitro. To be noted: human. This is another data set of the same source.
The conditions of series [4]: in situ brain perfusion in rodents; published permeability multiplied by VSA 150 cm^2/g; ref Summerfield et al., 2007; cited from earlier work.
For series [5], the system named is hCMEC/D3 mono-culture BBB model. To be noted: human.
For series [6] the following is noted: unbound fraction in brain; ref Di et al., 2011; cited from earlier work.

A word on the Papp A→B: it is the apparent permeability from the apical to the basolateral side of a cell layer. A higher Papp A→B goes with fast passage.

Marks after values point to notes of the source that are not given here.

Consider `COc1cc2c(cc1OC)C(=O)C(CC1CCN(Cc3ccccc3)CC1)C2` (centres unmarked) [Donepezil], for which the PS in series [1] was found to be 1860.43 µL/min/g; in series [5] it was 2688.43 µL/min/g. Also, in series [1], the “PSPre, Triple” value was 1860.43 µL/min/g. For the same compound, the Papp A→B came out at 22.6 ×10⁻⁶ cm/s in the series “in vitro [2]” (Papp (individual replicate)); 20.9 ×10⁻⁶ cm/s in “in vitro [2]” (Papp Mean); 20.9 ± 0.75 ×10⁻⁶ cm/s in “in vitro [2]” (Papp, Mono); 14.5 ×10⁻⁶ cm/s in the series “in vitro [3]” (Papp Mean); 14.5 ± 0.84 ×10⁻⁶ cm/s in the series “in vitro [3]” (Papp, Triple). Moreover, in series [4], the PSObs is reported as 1581.30^† μl/min/g. In addition, in series [5], the “PSPre, Mono” value amounted to 2688.43 µL/min/g. Besides, in series [6], the “fu, brain” value is given as 0.07^††.
